Data: the supplement of paper PMC12823440, “Inhibitors supercharge kinase turnover through native proteolytic circuits” (Nature, 2025)
Counter-ions that a name gives are not always drawn. The list shows a part of the results. The calls rarely recur for the same compound in another form.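 Kinases, fused to nanoluciferase, were expressed in K562 cells; luminescence was measured every 4 h from 2 to 18 h as percent of control (DMSO = 100%, positive control = 0%). A time point is decreased if signal falls significantly (2 sigma). Hits were called by the authors by a rule that is not shown; the count of time points alone does not decide it.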

The chains behind the UniProt entries cited, without tags or fusion partners. Where a name states a change or a piece, a line headed by the entry shows the natural chain unless it says otherwise.
UniProt P48729: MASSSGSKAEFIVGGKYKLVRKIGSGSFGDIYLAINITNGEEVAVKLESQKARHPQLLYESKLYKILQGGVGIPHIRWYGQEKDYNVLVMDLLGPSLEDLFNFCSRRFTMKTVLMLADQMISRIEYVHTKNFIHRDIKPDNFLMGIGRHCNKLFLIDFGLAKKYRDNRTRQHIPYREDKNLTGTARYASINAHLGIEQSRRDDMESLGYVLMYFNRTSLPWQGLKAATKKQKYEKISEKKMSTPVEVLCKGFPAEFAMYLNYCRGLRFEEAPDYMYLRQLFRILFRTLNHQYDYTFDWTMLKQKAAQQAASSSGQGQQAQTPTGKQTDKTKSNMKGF

Target: CSNK1A1 (UniProt P48729)
Assay: kinase-Nluc reporter destabilization hit call (1 = scored as downregulated) (binary); higher = compound decreases kinase abundance
Details: K562; 2-18 h

kinase-Nluc reporter destabilization hit call, inactive:
CCOc1cc2ncc(-c3cc(N)nc(F)c3)n2cc1S(=O)(=O)C(C)(C)C (10 µM) 0
CC(C)(/C=C(\C#N)C(=O)N1CCC[C@@H](n2nc(-c3ccc(Oc4ccccc4)cc3F)c3c(N)ncnc32)C1)N1CCN(C2COC2)CC1 (2.5 µM) 0
CCCn1cnc2c(NCc3ccccc3)nc(NC(CC)CO)nc21 (stereo unspecified) [Ca2+ channel agonist 1] (2.5 µM) 0
Brc1c(Br)c(Br)c2n[nH]nc2c1Br (10 µM) 0
Nc1nc(OCC2CCCCC2)c2[nH]cnc2n1 (10 µM) 0
COc1ccc(Oc2cc(NCCC(F)(F)F)c3ncc(-c4ccc(C(=O)NC5CC5)c(C)c4)n3n2)c(F)c1F (2.5 µM) 0
COc1cc(C(=O)NC2CCN(C)CC2)c(F)cc1Nc1ncc2c(n1)N(C1CCCC1)CC(F)(F)C(=O)N2C [TAK-960 (dihydrochloride)] (2.5 µM) 0
COc1ccc(NC(=O)N2CCN(c3nc(N)nc4c3cnn4C)[C@@H](C)C2)c(C)c1 (10 µM) 0
O=C(Nc1ccc(-c2ccnc(Nc3ccc(N4CCOCC4)cc3)n2)cc1)C1CCCN1 (stereo unspecified) (10 µM) 0
COc1nccc(-c2c(-c3ccc(F)cc3)ncn2C2CCC(O)CC2)n1 (stereo unspecified) (10 µM) 0
NC(=O)c1ccc2nc(-c3ccc(Oc4ccc(Cl)cc4)cc3)[nH]c2c1 (10 µM) 0
COc1ccc(COc2ccc(Cc3cnc(N)nc3N)cc2OC)cc1 (10 µM) 0
CN1CCN(c2ccc(Nc3cc(-c4cccc(-n5ccc6cc(C7CC7)cc(F)c6c5=O)c4CO)cn(C)c3=O)nc2)CC1 (2.5 µM) 0
C=CC(=O)N1CCC[C@@H](n2nc(-c3ccc(Oc4ccccc4)cc3)c(C(N)=O)c2N)C1 [Btk inhibitor 2] (10 µM) 0
Cc1c(NC(=O)c2cc3c(s2)CCCC3)cccc1-c1cn(C)c(=O)c(Nc2ccc([C@@H]3C(=O)N(C)CCN3C)cc2)n1 (10 µM) 0
CCOc1ccn(-c2ccc(F)cc2)c(=O)c1C(=O)Nc1ccc(Oc2ccnc(N)c2Cl)c(F)c1 (10 µM) 0
CCn1c(=O)c2cc(C(N)=O)c(N)nc2n(C2CC2)c1=O (10 µM) 0
COc1cc(C(=O)NC2CCN(C)CC2)ccc1Nc1ncc2c(n1)N(C1CCCC1)CC(F)(F)C(=O)N2C (10 µM) 0
CCN1CCN(c2ccc(Nc3cc(N(C)C(=O)Nc4c(Cl)c(OC)cc(OC)c4Cl)ncn3)cc2)CC1 [Infigratinib] (10 µM) 0
CN1CCN(S(=O)(=O)c2ccc(-c3cnc(N)c(C(=O)Nc4cccnc4)n3)cc2)CC1 (10 µM) 0
Cc1cccc([C@@H](CO)NC(=O)[C@@H](C)N2Cc3ccc(-c4nc(NC5CCOCC5)ncc4Cl)cc3C2=O)c1 [ERK1/2 inhibitor 1] (10 µM) 0
COc1cc(CCc2cc(-c3nc4ccc(N5CCN(C)CC5)cc4[nH]3)n[nH]2)cc(OC)c1 (10 µM) 0
Cc1cc(CS(=O)(=O)c2ccccc2)cc(OCc2ccc(CN3CCC[C@@H]3CO)cc2)c1 [PF-543 (Citrate)] (10 µM) 0
Cc1[nH]c(/C=C2\C(=O)Nc3ccc(S(=O)(=O)Cc4c(Cl)cccc4Cl)cc32)c(C)c1C(=O)N1CCC[C@@H]1CN1CCCC1 (2.5 µM) 0
Cc1cc(F)c(C(=O)Nc2cccc(-c3nncn3C(C)C)n2)cc1-n1cnc(C2CC2)c1 [Selonsertib] (10 µM) 0
COCCOc1cc2nccc(Nc3n[nH]c(C)c3C)c2cc1S(=O)(=O)C(C)(C)C [RIP2 kinase inhibitor 2] (2.5 µM) 0

Compounds shown so far containing an NH in an aromatic ring (6):
kinase-Nluc reporter destabilization hit call, inactive:
Brc1c(Br)c(Br)c2n[nH]nc2c1Br (10 µM) 0
Nc1nc(OCC2CCCCC2)c2[nH]cnc2n1 (10 µM) 0
NC(=O)c1ccc2nc(-c3ccc(Oc4ccc(Cl)cc4)cc3)[nH]c2c1 (10 µM) 0
COc1cc(CCc2cc(-c3nc4ccc(N5CCN(C)CC5)cc4[nH]3)n[nH]2)cc(OC)c1 (10 µM) 0
Cc1[nH]c(/C=C2\C(=O)Nc3ccc(S(=O)(=O)Cc4c(Cl)cccc4Cl)cc32)c(C)c1C(=O)N1CCC[C@@H]1CN1CCCC1 (2.5 µM) 0
COCCOc1cc2nccc(Nc3n[nH]c(C)c3C)c2cc1S(=O)(=O)C(C)(C)C [RIP2 kinase inhibitor 2] (2.5 µM) 0
